This is one part of the list. The main result of the screen is listed elsewhere. These columns were measured beside it and carry no call. Most of these compounds were active or inconclusive in the main read-out, so they are no random draw. Potencies come from curve fits of mixed quality, noted in brackets.

This assay can be described thus: qHTS Assay for Lipid Storage Modulators in Drosophila S3 Cells.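 As to cell number change: cells counted by Cell Tracker Red CMTPX staining in the red channel.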 The settings on record: BODIPY lipid droplet fluorescence, 18-24 h; for cell number change: measured here: cell count max response, cells fed with added oleic acid. The essentials: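 Drosophila S3 cells got compounds at several concentrations plus oleic acid (400 uM solution). Laser-scanning cytometry with 488 nm excitation read lipid droplets at 500-530 nm and cells at 575-640 nm. Percent activity was relative to 20 uM Triacsin C.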
Background: In qHTS, concentration-response curves come from the screen itself.

The mark [1] stands for this setting: measured here: lipid fluorescence (Fed channel) AC50, cells fed with added oleic acid.
[2] abbreviates: measured here: cell number channel AC50, cells fed with added oleic acid.

As a reminder, the AC50 is the concentration giving half of the maximal activity seen. Consider `O=c1c2ccccc2ncn1CCOc1ccccc1[N+](=O)[O-]`, for which the cell number change was -22.9%. The AC50 under setting [1] is 920 nM [falling, full curve]. On to `COC(=O)c1cccc(NC(=O)c2cccc(OC)c2)c1`, for which the cell number change is -2.33%. Also, the AC50 under setting [1] was 461 nM [rising, full curve, poor fit].

Consider `COc1cccc(OCC(=O)Nc2c3c(nn2-c2ccccc2)CS(=O)(=O)C3)c1`, for which the cell number change was -41.1%. Under setting [2], the AC50 is 29100 nM [falling, single point]. Further, the AC50 under setting [1] is 29100 nM [rising, single point]. For the molecule `CC1CCC(NC(=O)CSc2nnc(-c3cccnc3)o2)CC1` (stereo not given), the cell number change was determined as 28.4%. In addition, under setting [2], the AC50 was 4.61 nM [rising, full curve, poor fit]. With `Cc1cccc(CCN(Cc2cc3cccc(C)c3[nH]c2=O)C(=O)N2CCOCC2)c1`, the cell number change turned out to be 2.91%. Besides, under setting [1], the AC50 is 4.61 nM [rising, full curve, poor fit].

In the case of `NC(=S)N/N=C1\CC(n2nnnc2-c2ccccc2)C2COC1O2` (stereo not given), the cell number change was -13.5%. Turning to `CC(Oc1ccc(Cl)cc1)c1ccn[nH]1` (stereo not given), the cell number change came out at 36.2%. The AC50 under setting [2] was 3260 nM [falling, single point]. Also, under setting [1], the AC50 is 6510 nM [falling, single point]. On to `O=C1c2ccccc2C(=O)N1CCc1nc2ccccc2c(=O)n1CCCn1ccnc1`, for which the cell number change amounted to 0.292%. On the same count and under the same terms, the same measure for `CCOC(=O)c1cc2sccc2n1CC(=O)Nc1ccc(OC)c(OC)c1`: -15.4%. `O=C(COC(=O)/C=C/c1cccc(C(F)(F)F)c1)Nc1ccc(Cl)cn1`: the cell number change is -13.9%. In addition, the AC50 under setting [1] is 1840 nM [rising, partial curve]. Consider `COc1ccccc1CN1CCNC(=O)C1CC(=O)O` (stereo not given), for which the cell number change is 24.7%. In the case of `CCSC1=N/C(=C\c2cccc(F)c2)C(=O)S1`, the cell number change is -12.6%. For the molecule `CC(=C/c1ccccc1)/C=N/NC(=O)CSc1nc(C)cc(C)n1`, the cell number change stood at 50.2%. Moreover, under setting [2], the AC50 was 184 nM [rising, full curve]. For the same molecule, the AC50 under setting [1] is 184 nM [rising, full curve].

As to `N#CCc1nc2c3c4c(sc3ncn2n1)CCCC4`, the cell number change is -13.5%. In addition, the AC50 under setting [2] was 1840 nM [rising, partial curve, poor fit]. Under setting [1], the AC50 was 1840 nM [rising, partial curve]. For `CC(=O)c1ccc(OCC(O)CN2C(C)CCCC2C)cc1` (stereo not given), the cell number change worked out at 5.7%. Moreover, the AC50 under setting [1] is 2910 nM [falling, single point]. Consider `COc1ccc(/C=C(/NC(=O)c2ccco2)C(=O)Nc2cccc(C(=O)O)c2)cc1`, for which the cell number change was 8.12%. Moreover, under setting [1], the AC50 was 29100 nM [falling, single point]. For the molecule `COc1ccc(S(=O)(=O)Nc2ccccc2C(=O)N2CCOCC2)cc1OC`, the cell number change was -1.32%. As to `O=C(NCc1cccs1)c1ccc(S(=O)(=O)N2CCOCC2)cc1`, the AC50 under setting [1] is 231 nM [falling, full curve, poor fit].

As for `CCCC(=O)Nc1ccc(S(=O)(=O)Nc2cc(OC)ncn2)cc1`, the cell number change is -3.31%. Further, the AC50 under setting [1] was 29100 nM [rising, single point]. For the molecule `COC(=O)c1c(NC(=O)/C=C/c2ccco2)sc2c1CCC2`, the cell number change was -4.08%. Further, the AC50 under setting [1] was 231 nM [rising, full curve, poor fit]. For the molecule `CC1CN(c2ncnc3c2oc2ccccc23)CC(C)O1` (stereo not given), the cell number change was -9.2%. With `CC1CC(C)CN(C(=O)COC(=O)c2cccc([N+](=O)[O-])c2)C1` (stereo not given), the cell number change is 57.5%.

As for `Cc1nnc(SCC(=O)Nc2ccc3c(c2)OCCO3)n1CC1CCCO1` (stereo not given), the cell number change came to 2.02%. The AC50 under setting [1] was 130 nM [falling, full curve, poor fit]. Turning to `COc1ccc(-c2csc(NC(=O)CSCc3c(C)noc3C)n2)cc1OC`, the cell number change is -15.1%. Moreover, under setting [1], the AC50 is 3660 nM [falling, single point]. Regarding `O=C(OCC(=O)N1CCOCC1)c1cc2ccccc2oc1=O`, the cell number change was determined as 13.4%. The AC50 under setting [1] was 4.61 nM [rising, full curve, poor fit]. `Cc1ccc2c(c1)N(CCC(=O)NC(C)C)C(=O)CO2`: the cell number change is 29.7%. Besides, the AC50 under setting [1] was 6510 nM [rising, single point]. Regarding `CCOC(=O)c1cc2c(=O)n3ccccc3nc2n(CCCOC)c1=NC(=O)C(C)(C)C`, the cell number change is -20.6%. Also, the AC50 under setting [1] is 18400 nM [falling, partial curve]. As to `COc1ccc(-n2ncc(C(C)NS(=O)(=O)c3ccc(C)s3)c2C)cc1` (stereo not given), the cell number change stood at 9.76%. In addition, the AC50 under setting [1] is 2310 nM [falling, partial curve].

As to `NS(=O)(=O)c1ccc(CCNC(=O)CNC(=O)c2ccc(F)cc2)cc1`, the cell number change was determined as 3.36%. Still for that read-out and setting: the same measure for `CCOc1ccc(NC(=O)c2ccc3c(c2)C(=O)N(Cc2ccncc2)C3=O)cc1`: 4.82%; for `CCOC(=O)/C=C1\CN(CCC(C)C)S(=O)(=O)c2ccccc21`: 4.85%.

Take `Oc1c(Cl)cc(CN2CCCCC2)c2cccnc12`: the cell number change is -12.4%. For the same molecule, the AC50 under setting [1] is 32600 nM [falling, single point]. On to `O=C(NCC1CCCO1)c1c(O)c2cccc3c2n(c1=O)CC3` (stereo not given), for which the cell number change turned out to be 37.4%. Further, the AC50 under setting [2] was 6510 nM [rising, full curve, poor fit]. Further, under setting [1], the AC50 was 2310 nM [rising, full curve]. For the molecule `COC(=O)c1ccc(NC(=O)Cn2c([N+](=O)[O-])cnc2C)cc1`, the cell number change is -8.07%. The AC50 under setting [1] is 51.7 nM [rising, partial curve, poor fit].

Consider `Cc1ccc(-c2nnn(CC(=O)N(c3ccccc3)C(C(=O)NCC3CCCO3)c3ccc(F)cc3)n2)o1` (stereo not given), for which the cell number change is 16%. Besides, the AC50 under setting [1] was 130 nM [rising, full curve, poor fit]. For `COc1cccc(/C=N/NC(=O)c2cnccn2)c1`, the cell number change came out at 101%. Moreover, the AC50 under setting [2] was 29100 nM [rising, single point].

Regarding `Cc1csc(NC(=O)Cn2nc(C)c([N+](=O)[O-])c2C)n1`, the cell number change came to 16.1%. In addition, the AC50 under setting [1] is 2310 nM [rising, full curve, poor fit]. With `CC(C)(C)c1ccc(-n2ncc3c2CCCC3NC(=O)CCN2CCCCC2=O)cc1` (stereo not given), the cell number change is -33.7%. In addition, under setting [1], the AC50 was 5170 nM [falling, partial curve].

In the case of `CN1C(=O)c2oc3ccccc3c(=O)c2C1c1ccccn1` (stereo not given), the AC50 under setting [1] is 651 nM [falling, full curve, poor fit].

Take `S=c1[nH]nc(-c2ccc(Br)o2)n1Cc1ccccc1`: the cell number change came to 12.4%. Also, the AC50 under setting [1] is 2310 nM [falling, partial curve, poor fit].

Consider `COc1ccc(-c2cnc(OC(C)(C)C)nc2OC(C)(C)C)cc1OC`, for which the cell number change was -36.9%. Under setting [2], the AC50 is 2060 nM [rising, partial curve]. For the molecule `Cc1ccoc1C(=O)NCCNC(=O)c1occc1C`, the cell number change was 1.2%.
